Test results as given in PMC10182956 (Archives of Toxicology, 2023).

Tested on: HepaRG cells
Experiment: Cell viability assessment (WST-1 assay)
Assay type: cell-based
Details: Homo sapiens, 24 h exposure, reference chemicals, 95% CI in brackets, read-out: EC50 µM (95% CI) from cell viability (WST-1)
Text: Undifferentiated HepaRG cells were purchased from Biopredic international (Saint Grégoire, France). HepaRG cells have unlimited growth capacity and phenotypic stability, stable enzymatic activities over 4 weeks of cultivation, and similar metabolic function to primary human hepatocytes, and also avoid limitations of primary cells such as donor variability and phenotypic instability (Aninat et al. [2006]; Guillouzo et al. [2007]; Lambert et al. [2009]; Lübberstedt et al. [2011]; Andersson et al. [2012]). The line contains two cell types, hepatocyte-like and cholangiocyte-like cells (Parent et al. [2004]), which allows for elucidation of cell-specific toxicity (Jossé et al. [2008]). […]
Cell viability was analyzed using the WST-1 assay which is based on the measurement of mitochondrial dehydrogenase activity (cat. nr: ab155902, Abcam, Cambridge, UK). […] After 1 h, absorbance was measured (450 nm, reference wavelength 620 nm) using a plate reader (Infinite M200 Pro, Tecan group, Männerdorf, Switzerland). Absorbance was then subtracted from the reference wavelength, corrected for background by subtracting values measured without cells, and then normalized to the solvent control, which was set to 100%. […]

In the case of CCCCc1oc2ccccc2c1C(=O)c1cc(I)c(OCCN(CC)CC)c(I)c1 [amiodarone], the EC50 is reported as 45.1 µM.
